Source: PubChem BioAssay AID1259265 (Sanger Institute, 2017)
Here is one part, drawn at random, of 160 reagents tested. In the full data, 31 (19%) are marked active. 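Calls refer to single siRNAs; agreement across several siRNAs per gene and other cell lines is not shown.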 Reagents against one gene are numbered here. No viability above 1 is reported: the scale is capped. Reagent sequences are not shown. The record does not give: the amount of reagent, the time to read-out.

Test: 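Retest single siRNAs, four per gene, for boosting anchor drug effects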 (follow-up of hits)
Cells: SW620 human colorectal cancer cells
Reagents: single siRNA against human genes
Conditions: anchor drug given a day after transfection: BYL719 at 1 µM, cetuximab at 5 µg/ml, trametinib at 10 nM; DMSO alone as the comparison arm
Read-out: 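Viability of each well as a fraction of the non-targeting pool 2 control, mean of replicates; synergy score weighing the combined effect against siRNA and drug alone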
Scale: synergy score with trametinib: higher = stronger synergy (synthetic lethal) with trametinib; synergy score with BYL719: higher = stronger synergy (synthetic lethal) with BYL719; synergy score with cetuximab: higher = stronger synergy (synthetic lethal) with cetuximab; viability, siRNA alone (DMSO) and viability, siRNA plus trametinib: higher = more surviving cells
Rule for the call: 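Active if the synergy score is over 0.10 for any of the three anchor drugs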

| gene symbol | reagent | synergy score with trametinib | synergy score with BYL719 | synergy score with cetuximab | viability, siRNA alone (DMSO) (fraction of control) | viability, siRNA plus trametinib (fraction of control) | outcome |
| --- | --- | --- | --- | --- | --- | --- | --- |
| PRAG1 (GeneID 157285) | 1 | -0.0356 | -0.0847 | -0.0258 | 0.757 | 0.446 | inactive |
| PRAG1 (GeneID 157285) | 2 | -0.0807 | 0.402 | -0.122 | 1 | 0.623 | – |
| PRAG1 (GeneID 157285) | 3 | -0.202 | -0.127 | -0.0812 | 1 | 0.745 | inactive |
| PRAG1 (GeneID 157285) | 4 | -0.0603 | 0.0259 | -0.112 | 0.971 | 0.587 | inactive |
| SYK (GeneID 6850) | 1 | 0.00821 | 0.00166 | -0.0927 | 0.475 | 0.249 | inactive |
| SYK (GeneID 6850) | 2 | -0.0195 | -0.2 | -0.0431 | 0.81 | 0.459 | inactive |
| SYK (GeneID 6850) | 3 | 0.122 | -0.0166 | -0.0627 | 0.62 | 0.215 | active |
| SYK (GeneID 6850) | 4 | -0.0915 | -0.0989 | -0.0543 | 1 | 0.634 | inactive |
| IRAK1 (GeneID 3654) | 1 | 0.304 | 0.0214 | -0.122 | 1 | 0.238 | active |
| IRAK1 (GeneID 3654) | 2 | -0.111 | -0.0746 | -0.174 | 0.94 | 0.621 | inactive |
| IRAK1 (GeneID 3654) | 3 | 0.026 | 0.0805 | -0.165 | 0.902 | 0.463 | inactive |
| IRAK1 (GeneID 3654) | 4 | -0.249 | 0.372 | -0.129 | 0.991 | 0.787 | – |
| PLK1 (GeneID 5347) | 1 | -0.00709 | -0.0327 | -0.0635 | 0.156 | 0.0918 | inactive |
| PLK1 (GeneID 5347) | 2 | -0.0166 | -0.0506 | 0.0373 | 0.213 | 0.132 | inactive |
| PLK1 (GeneID 5347) | 3 | 0.00479 | -0.0316 | -0.0164 | 0.221 | 0.115 | inactive |
| PLK1 (GeneID 5347) | 4 | -0.00941 | -0.073 | -0.0401 | 0.0917 | 0.0591 | inactive |
| PAK1 (GeneID 5058) | 1 | 0.0659 | -0.139 | -0.0976 | 0.96 | 0.455 | inactive |
| PAK1 (GeneID 5058) | 2 | -0.0473 | -0.0691 | 0.0189 | 0.527 | 0.333 | inactive |
| PAK1 (GeneID 5058) | 3 | 0.149 | 0.0728 | -0.174 | 0.856 | 0.315 | active |
| PAK1 (GeneID 5058) | 4 | 0.00846 | -0.236 | -0.0534 | 0.959 | 0.512 | inactive |
| HSPB8 (GeneID 26353) | 1 | 0.025 | -0.2 | -0.0493 | 0.865 | 0.445 | inactive |
| HSPB8 (GeneID 26353) | 2 | -0.0641 | -0.305 | -0.0424 | 1 | 0.607 | inactive |
| HSPB8 (GeneID 26353) | 3 | -0.0224 | -0.346 | 0.00546 | 0.874 | 0.497 | inactive |
| HSPB8 (GeneID 26353) | 4 | 0.0589 | -0.0113 | 0.184 | 0.978 | 0.472 | – |
| BMPR2 (GeneID 659) | 1 | -0.114 | -0.116 | -0.122 | 1 | 0.657 | inactive |
| BMPR2 (GeneID 659) | 2 | 0.0319 | -0.147 | 0.000886 | 1 | 0.511 | inactive |
| BMPR2 (GeneID 659) | 3 | -0.0505 | -0.257 | -0.122 | 1 | 0.593 | inactive |
| BMPR2 (GeneID 659) | 4 | -0.242 | -0.301 | -0.122 | 1 | 0.785 | inactive |
| PIK3CA (GeneID 5290) | 1 | 0.0371 | -0.0983 | 0.0103 | 0.983 | 0.496 | inactive |
| PIK3CA (GeneID 5290) | 2 | -0.114 | -0.113 | -0.0643 | 0.547 | 0.411 | inactive |
| PIK3CA (GeneID 5290) | 3 | 0.0848 | 0.0994 | -0.0889 | 0.98 | 0.447 | inactive |
| PIK3CA (GeneID 5290) | 4 | -0.0157 | -0.132 | -0.0512 | 0.857 | 0.481 | inactive |
| CSNK2A2 (GeneID 1459) | 1 | -0.0472 | -0.192 | -0.122 | 1 | 0.59 | inactive |
| CSNK2A2 (GeneID 1459) | 2 | -0.0555 | -0.0737 | -0.0266 | 0.292 | 0.214 | inactive |
| CSNK2A2 (GeneID 1459) | 3 | 0.0948 | -0.103 | -0.00213 | 0.761 | 0.318 | inactive |
| CSNK2A2 (GeneID 1459) | 4 | 0.0254 | -0.127 | -0.0926 | 0.345 | 0.162 | inactive |
| PINK1 (GeneID 65018) | 1 | -0.0461 | -0.34 | -0.00514 | 0.951 | 0.562 | inactive |
| PINK1 (GeneID 65018) | 2 | 0.141 | -0.0768 | -0.135 | 0.818 | 0.303 | active |
| PINK1 (GeneID 65018) | 3 | 0.0927 | -0.169 | -0.0698 | 0.897 | 0.394 | inactive |
| PINK1 (GeneID 65018) | 4 | 0.124 | -0.0222 | -0.116 | 0.96 | 0.397 | active |
| CHD4 (GeneID 1108) | 1 | -0.0213 | -0.121 | -0.0389 | 0.822 | 0.467 | inactive |
| CHD4 (GeneID 1108) | 2 | 0.056 | -0.206 | 0.12 | 0.794 | 0.375 | – |
| CHD4 (GeneID 1108) | 3 | -0.0262 | -0.0308 | 0.118 | 0.792 | 0.456 | – |
| CHD4 (GeneID 1108) | 4 | -0.0995 | -0.165 | -0.051 | 1 | 0.642 | inactive |
| PIM1 (GeneID 5292) | 1 | 0.0891 | -0.115 | -0.085 | 0.784 | 0.336 | inactive |
| PIM1 (GeneID 5292) | 2 | 0.0511 | 0.0409 | -0.157 | 0.891 | 0.433 | inactive |
| PIM1 (GeneID 5292) | 3 | -0.215 | -0.372 | -0.143 | 0.874 | 0.69 | inactive |
| PIM1 (GeneID 5292) | 4 | -0.0316 | -0.0688 | -0.122 | 1 | 0.574 | inactive |
| GRK5 (GeneID 2869) | 1 | 0.0209 | -0.0811 | -0.122 | 1 | 0.522 | inactive |
| GRK5 (GeneID 2869) | 2 | 0.0488 | -0.0623 | 0.0649 | 1 | 0.494 | inactive |
| GRK5 (GeneID 2869) | 3 | 0.134 | -0.115 | 0.0227 | 1 | 0.408 | active |
| GRK5 (GeneID 2869) | 4 | -0.00183 | -0.243 | 0.0537 | 1 | 0.544 | inactive |
| KCNH8 (GeneID 131096) | 1 | 0.0181 | -0.268 | -0.171 | 0.684 | 0.353 | inactive |
| KCNH8 (GeneID 131096) | 2 | 0.281 | 0.0744 | 0.00414 | 1 | 0.261 | active |
| KCNH8 (GeneID 131096) | 3 | -0.167 | -0.302 | -0.122 | 1 | 0.709 | inactive |
| KCNH8 (GeneID 131096) | 4 | 0.146 | -0.0119 | 0.0385 | 0.802 | 0.289 | active |
| MPP3 (GeneID 4356) | 1 | 0.0323 | -0.306 | -0.122 | 1 | 0.51 | inactive |
| MPP3 (GeneID 4356) | 2 | -0.0383 | -0.105 | -0.00488 | 0.961 | 0.559 | inactive |
| MPP3 (GeneID 4356) | 3 | 0.326 | 0.0681 | -0.149 | 0.969 | 0.2 | active |
| MPP3 (GeneID 4356) | 4 | 0.0101 | -0.146 | -0.0347 | 0.756 | 0.4 | inactive |

Records listed so far with an active call, once more:
| gene symbol | reagent | synergy score with trametinib | synergy score with BYL719 | synergy score with cetuximab | viability, siRNA alone (DMSO) (fraction of control) | viability, siRNA plus trametinib (fraction of control) | outcome |
| --- | --- | --- | --- | --- | --- | --- | --- |
| SYK (GeneID 6850) | 3 | 0.122 | -0.0166 | -0.0627 | 0.62 | 0.215 | active |
| IRAK1 (GeneID 3654) | 1 | 0.304 | 0.0214 | -0.122 | 1 | 0.238 | active |
| PAK1 (GeneID 5058) | 3 | 0.149 | 0.0728 | -0.174 | 0.856 | 0.315 | active |
| PINK1 (GeneID 65018) | 2 | 0.141 | -0.0768 | -0.135 | 0.818 | 0.303 | active |
| PINK1 (GeneID 65018) | 4 | 0.124 | -0.0222 | -0.116 | 0.96 | 0.397 | active |
| GRK5 (GeneID 2869) | 3 | 0.134 | -0.115 | 0.0227 | 1 | 0.408 | active |
| KCNH8 (GeneID 131096) | 2 | 0.281 | 0.0744 | 0.00414 | 1 | 0.261 | active |
| KCNH8 (GeneID 131096) | 4 | 0.146 | -0.0119 | 0.0385 | 0.802 | 0.289 | active |
| MPP3 (GeneID 4356) | 3 | 0.326 | 0.0681 | -0.149 | 0.969 | 0.2 | active |
